Assay [1] concerns the target MBP-OtUBD (Orientia tsutsugamushi) (UniProt B3CVM3). In words: pull-down.
The target is the same in assay [2]. Kind of assay: pull-down. The source holds these as a separate data set.

Sequences of proteins named here, by UniProt entry; tags and fusion partners are left off. Residues count along the entry.
UniProt P0CG63, residues 1-76: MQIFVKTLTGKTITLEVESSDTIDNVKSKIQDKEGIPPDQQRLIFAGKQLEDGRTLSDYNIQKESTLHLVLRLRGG

Our source for the binding values is publication doi:10.1101/2021.12.02.470885.

Where two headings read alike, the source gives them in different places. Results are given in words; binding and its absence hold for the method and conditions named. In cells and extracts the contact can be indirect. Some entries that bind do so weakly or less than the wild type.

Take “ubiquitin of yeast lysate (free and conjugated to proteins) (from UniProt P0CG63 1-76)”: the binding result in assay [1] and in assay [2] was “binds” throughout.
